Measured values taken from publication PMC8975815.
Results are given in words; binding and its absence hold for the method and conditions named. In cells and extracts the contact can be indirect. Some results given as binding are weak or reduced against the parent protein; the word gives no strength.

Chains of the proteins cited; added tags and fusions are not shown.
UniProt Q9UKI2: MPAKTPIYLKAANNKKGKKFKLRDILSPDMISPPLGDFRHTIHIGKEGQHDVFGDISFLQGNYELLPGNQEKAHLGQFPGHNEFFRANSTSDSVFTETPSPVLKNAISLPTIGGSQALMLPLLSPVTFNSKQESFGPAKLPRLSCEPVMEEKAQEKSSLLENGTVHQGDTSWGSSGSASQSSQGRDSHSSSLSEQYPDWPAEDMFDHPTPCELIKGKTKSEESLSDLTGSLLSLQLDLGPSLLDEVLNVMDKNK
UniProt P01106: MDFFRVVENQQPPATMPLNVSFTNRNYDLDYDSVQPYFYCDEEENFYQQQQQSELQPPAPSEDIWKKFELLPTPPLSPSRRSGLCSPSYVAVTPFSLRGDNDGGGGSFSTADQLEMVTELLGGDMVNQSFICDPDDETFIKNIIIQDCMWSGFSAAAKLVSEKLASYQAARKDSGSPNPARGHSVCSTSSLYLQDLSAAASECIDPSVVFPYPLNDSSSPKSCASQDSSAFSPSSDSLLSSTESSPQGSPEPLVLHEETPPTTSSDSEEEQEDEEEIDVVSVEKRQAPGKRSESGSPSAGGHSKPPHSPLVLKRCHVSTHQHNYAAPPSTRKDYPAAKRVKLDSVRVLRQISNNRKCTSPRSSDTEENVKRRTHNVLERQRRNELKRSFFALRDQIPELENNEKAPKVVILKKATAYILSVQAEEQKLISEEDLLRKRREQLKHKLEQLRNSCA

Target: CDC42EP3 (CDC42 effector protein 3) (human) (UniProt Q9UKI2)
Assay: co-IP; protein lysate (1.0~1.2 mg) of U251 cells incubated with antibodies at 4 °C overnight, then with beads for 2 h at 4 °C; washed three times; SDS-PAGE and Western blot

binding: binds
Substance: c-Myc (from UniProt P01106 1-454)
